The values that follow come from PMC10641623.

By UniProt entry, the sequences of proteins in these tests, tags left out.
UniProt P19073: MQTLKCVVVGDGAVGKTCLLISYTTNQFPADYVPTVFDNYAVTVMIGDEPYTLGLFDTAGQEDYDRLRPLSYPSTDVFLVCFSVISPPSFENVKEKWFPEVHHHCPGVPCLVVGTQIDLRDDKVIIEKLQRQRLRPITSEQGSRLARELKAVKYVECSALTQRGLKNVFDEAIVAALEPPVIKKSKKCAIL

No constants are given. Whether binding was seen depends on the method and setting. Some entries that bind do so weakly or less than the wild type.

This assay addresses Cdc42p (S. cerevisiae) (UniProt P19073). Put plainly: two-hybrid; yeast two-hybrid between Cdc42p and Bem4p, in WT cells and in cells overexpressing RDI1; performed as described in ref. 29.

B1: Bem4p (protein, UniProt P39011 1-633)
chain: MDYEEILFGLQPILNASSIKDVPMNDVYLGSYLAVMDQLAVSLREPSNRDIVGKTGLLLNLVRVLEQALDICFHDTSISINDKIAFYEISSEVIRCIANAIIDNDDNREILLDSGGKKLLNYYIGGVLQLDEISSDKSEDSLVDKLQMRSVVLLRNFCIGNLKYTENLAPFIRGPLFVLLKTTQYSYLSSPEKVVLGSDLLNDILKVNYSNVQISDLFFLSQYIKKISSNVQNKELQAMEDGAVEAYSNTETQKFAGQGNQEYIEKEEEDDEEDVNCELLLNLSTCLETIVAKDETINFTNEEQLVLSMQKNLILSLVCLESKTFNNKLIVMRRLISCAGNISANLTNSNKREQSLCIETIKSSASSYALAAALMILCNSVASKSDAVALLKLISLSELIQVGSLLQDPLQYQGFLDLLRKLLNLENTMWLDIKDLFTLFQIMRRCHEQTKYYNNLRSLLTNLLNKTLTVLPSSKIHNSISSDPTIISFIAEHGTLTSCIAMDKLLVSKKALPKEAITSLWDSIFKFQNLGQAEQLSISDLFHITKTVGIYLKDSSVTADVNPIENILFKDYIQKLTLILETILSFKENKDKGSESCFNNGKFIAGIILNIVKNTKCLTPEEQNLEALAKSFF
On to B1, for which the binding result is “binds”.
